Sequences of proteins named here, by UniProt entry; tags and fusion partners are left off. A change or cut given only in a name is not applied to a line headed by its entry.
UniProt P00441: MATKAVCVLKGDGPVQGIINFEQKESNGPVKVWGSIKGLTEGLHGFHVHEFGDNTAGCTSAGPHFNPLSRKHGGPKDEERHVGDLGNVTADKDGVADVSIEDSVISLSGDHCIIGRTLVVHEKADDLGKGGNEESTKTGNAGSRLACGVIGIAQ

According to publication PMC12017883:

Target: human mtSOD1-L126delTT with a FLAG sequence at the C terminus (human) (UniProt P00441)
Experiment: affinity purification with mass spectrometry; anti-FLAG M2 IP (5 ug antibody, protein A/G magnetic beads) from the nuclear fraction of DF7 cells (500 ug total protein); control IP with monoclonal mouse IgG (MOPC 21); DIA proteomics; hits: log2 FC >= 2 over control or missing in the control IP

binding: binds
B1: Ataxin 2 (protein, UniProt O70305 1-1285)
chain: MRSSTAAVQRPAAGDPEPRRPAGWAARRSLPRTARRGGRGGAVAYPSAGPPPRGPGAPPRGPRSPPCASDCFGSNGHGASRPGSRRLLGVCGPPRPFVVVLLALAPAATPARACPPGVRASPPRSGVSSSARPAPGCPRPACEPVYGPLTMSLKPQPQPPAPATGRKPGGGLLSSPGAAPASAAVTSASVVPAPAAPVASSSAAAGGGRPGLGRGRNSSKGLPQPTISFDGIYANVRMVHILTSVVGSKCEVQVKNGGIYEGVFKTYSPKCDLVLDAAHEKSTESSSGPKREEIMESVLFKCSDFVVVQFKDTDSSYARRDAFTDSALSAKVNGEHKEKDLEPWDAGELTASEELELENDVSNGWDPNDMFRYNEENYGVVSTYDSSLSSYTVPLERDNSEEFLKREARANQLAEEIESSAQYKARVALENDDRSEEEKYTAVQRNCSDREGHGPNTRDNKYIPPGQRNREVLSWGSGRQSSPRMGQPGPGSMPSRAASHTSDFNPNAGSDQRVVNGGVPWPSPCPSHSSRPPSRYQSGPNSLPPRAATHTRPPSRPPSRPSRPPSHPSAHGSPAPVSTMPKRMSSEGPPRMSPKAQRHPRNHRVSAGRGSMSSGLEFVSHNPPSEAAAPPVARTSPAGGTWSSVVSGVPRLSPKTHRPRSPRQSSIGNSPSGPVLASPQAGIIPAEAVSMPVPAASPTPASPASNRALTPSIEAKDSRLQDQRQNSPAGSKENVKASETSPSFSKADNKGMSPVVSEHRKQIDDLKKFKNDFRLQPSSTSESMDQLLSKNREGEKSRDLIKDKTEASAKDSFIDSSSSSSNCTSGSSKTNSPSISPSMLSNAEHKRGPEVTSQGVQTSSPACKQEKDDREEKKDTTEQVRKSTLNPNAKEFNPRSFSQPKPSTTPTSPRPQAQPSPSMVGHQQPAPVYTQPVCFAPNMMYPVPVSPGVQPLYPIPMTPMPVNQAKTYRAGKVPNMPQQRQDQHHQSTMMHPASAAGPPIVATPPAYSTQYVAYSPQQFPNQPLVQHVPHYQSQHPHVYSPVIQGNARMMAPPAHAQPGLVSSSAAQFGAHEQTHAMYACPKLPYNKETSPSFYFAISTGSLAQQYAHPNAALHPHTPHPQPSATPTGQQQSQHGGSHPAPSPVQHHQHQAAQALHLASPQQQSAIYHAGLAPTPPSMTPASNTQSPQSSFPAAQQTVFTIHPSHVQPAYTTPPHMAHVPQAHVQSGMVPSHPTAHAPMMLMTTQPPGPKAALAQSALQPIPVSTTAHFPYMTHPSVQAHHQQQL

binding: binds
B2: Ddx21 (protein, UniProt Q9JIK5 1-851)
chain: MPGKLRSGAKLGSDGAEESMETLPKPSEKKTRKEKTKSKTEEATEGMEEAVSSKAKKTNKKGPSEDDVDPPKSRKAKKQEEEPQDDTASTSKTSKKKKEPLEKQADSETKEIITEEPSEEEADMPKPKKMKKGKEANGDAGEKSPKLKNGLSQPSEEEADIPKPKKMKKGKEANGDAGEKSPKLKNGLSQPSEEEVDIPKPKKMKKGKEASGDAGEKSPRLKDGLSQPSEPKSNSSDAPGEESSSETEKEIPVEQKEGAFSNFPISEETVKLLKARGVNFLFPIQAKTFHHVYSGKDLIAQARTGTGKTFSFAIPLIEKLQGGLQERKRGRAPQVLVLAPTRELANQVSKDFSDITKKLSVACFYGGTPYGGQIERMRSGIDILVGTPGRIKDHLQNGKLDLTKLKHVVLDEVDQMLDMGFADQVEEILCVAYKKDSEDNPQTLLFSATCPHWVFNVAKKYMKSTYEQVDLIGKKTQKAAITVEHLAIKCHWTERAAVIGDVIRVYSGHQGRTIIFCETKKDAQELSQNTCIKQDAQSLHGDIPQKQREITLKGFRNGNFGVLVATNVAARGLDIPEVDLVVQSCPPKDVESYIHRSGRTGRAGRTGVCICFYQNKEEYQLAQVEQKAGIKFKRIGVPSATEIIKASSKDAIRLLDSVPPTAISHFKQSAEKLIEEKGAVEALAAALAHISGATSVDQRSLINSQAGFVTMILRCSIEMPNISYAWKELKEQLGESIDAKVKGMVFLKGKLGVCFDVRTEAVTEIQEKWHDSRRWQLTVATEQPELEGPPDGYRGRMGQRDGSRGAFRGQRGGSRNFRGQGQRGGSRNFRGQRPGGGNRGQKRSFSKAFGQ

Results are given in words; binding and its absence hold for the method and conditions named. In cells and extracts the contact can be indirect. Here binding means that the protein was enriched with, or labelled near, the bait; the list need not be complete. One block for each binder: values may come before it.
